Source: PMC4585710
No constants are given. Whether binding was seen depends on the method and setting. In cells and extracts the contact can be indirect. Binding can be weak; no strength is given.

The chains behind the UniProt entries cited, without tags or fusion partners. Where a name states a change or a piece, a line headed by the entry shows the natural chain unless it says otherwise. Residues count along the entry.
UniProt P14211, residues 18-416: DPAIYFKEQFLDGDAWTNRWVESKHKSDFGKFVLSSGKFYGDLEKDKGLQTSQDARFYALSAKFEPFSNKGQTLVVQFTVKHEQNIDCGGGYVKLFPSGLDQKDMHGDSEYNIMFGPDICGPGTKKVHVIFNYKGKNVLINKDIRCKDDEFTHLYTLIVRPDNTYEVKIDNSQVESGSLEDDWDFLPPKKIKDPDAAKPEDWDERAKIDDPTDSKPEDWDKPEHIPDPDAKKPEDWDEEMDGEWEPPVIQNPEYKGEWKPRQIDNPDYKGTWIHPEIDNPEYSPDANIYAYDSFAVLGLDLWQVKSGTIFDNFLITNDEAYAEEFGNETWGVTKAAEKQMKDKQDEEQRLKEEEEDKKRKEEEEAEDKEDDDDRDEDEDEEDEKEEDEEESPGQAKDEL
UniProt Q9Z0L4: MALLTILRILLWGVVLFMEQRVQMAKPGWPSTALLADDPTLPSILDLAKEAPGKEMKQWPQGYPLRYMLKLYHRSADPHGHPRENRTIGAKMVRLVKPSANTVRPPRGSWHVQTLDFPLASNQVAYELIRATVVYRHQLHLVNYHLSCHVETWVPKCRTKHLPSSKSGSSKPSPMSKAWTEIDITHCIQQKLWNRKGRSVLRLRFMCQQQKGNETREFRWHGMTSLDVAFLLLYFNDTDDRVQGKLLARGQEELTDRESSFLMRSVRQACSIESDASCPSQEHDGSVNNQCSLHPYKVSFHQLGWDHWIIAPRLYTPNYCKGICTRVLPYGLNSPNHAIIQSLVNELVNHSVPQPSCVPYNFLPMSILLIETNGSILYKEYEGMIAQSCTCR
UniProt Q07105: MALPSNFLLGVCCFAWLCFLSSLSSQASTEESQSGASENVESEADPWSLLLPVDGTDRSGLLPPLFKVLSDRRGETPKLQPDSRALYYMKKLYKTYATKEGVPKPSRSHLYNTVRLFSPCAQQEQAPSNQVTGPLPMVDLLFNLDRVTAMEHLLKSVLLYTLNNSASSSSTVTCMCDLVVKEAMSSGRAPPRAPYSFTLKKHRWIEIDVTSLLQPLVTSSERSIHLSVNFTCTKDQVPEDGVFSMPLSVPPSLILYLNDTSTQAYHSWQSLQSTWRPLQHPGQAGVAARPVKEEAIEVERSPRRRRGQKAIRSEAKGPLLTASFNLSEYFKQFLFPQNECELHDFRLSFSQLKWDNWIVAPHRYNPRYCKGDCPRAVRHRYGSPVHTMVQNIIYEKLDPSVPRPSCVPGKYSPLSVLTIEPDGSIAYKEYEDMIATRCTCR

Biological target: calreticulin (CALR) (mouse (endogenous in MEF)) (UniProt P14211)
Assay: co-IP; immunoprecipitation with anti-CALR antibody from cell lysates (50 ug) of Calr+/+ or Calr-/- MEFs expressing Flag/His tagged GDF9 or BMP15; immunoprecipitates probed with anti-His antibody on immunoblots

Row | binding | Substance
1 | binds | mouse BMP15 tagged with Flag/Hisx6 at the C-terminus (from UniProt Q9Z0L4)
2 | binds | mouse GDF9 tagged with Flag/Hisx6 at the C-terminus (from UniProt Q07105)
